According to US4900730A, “Preparation which promotes the absorption of peptides” (priority 1981, dated 1990):

Assay: Rectal circulation with fatty acids as promoters (Example 15, Example 1 repeated)
Conditions: Table 9, fatty acid 0.1 W/V %
Experimental: Absorption effects under conditions with various tonicities were examined.
The experiment was conducted in the following manner.
(The units in the Table are percents.)

## CC(C)CC(=O)O [Isovaleric acid, isovaleric acid]
X 1
  medicine disappeared by absorption, Osmotic pressure X 1: 7.7 percents
X 4
  medicine disappeared by absorption, Osmotic pressure X 4: 14.4 percents
